No constants are given. Whether binding was seen depends on the method and setting. Binding can be weak; no strength is given.
Biological target: PCSK9Δhelix (human)
Test: phage spot ELISA

Binder: TAFTSWEEYLDWVGSGCWTYLRGGCSVT [SEQ ID NO 339]
- binding: binds

Binder: TAFTSWEEYLDWVGSGPRTYLRGLVD [SEQ ID NO 340]
- binding: binds

Binder: TAFTSWEEYLDWVGSGQTTYLRVSSS [SEQ ID NO 341]
- binding: binds

Binder: TAFTSWEEYLDWVGSGQISYLRNA [SEQ ID NO 342]
- binding: binds

Binder: TAFTSWEEYLDWVGSGRGEVYDKGGVIVHL [SEQ ID NO 343]
- binding: binds

Binder: TAFTSWEEYLDWVGSGGREMRSVIQM [SEQ ID NO 344]
- binding: binds

Binder: TAFTSWEEYLDWVGSGGDCGYHYMCSMT [SEQ ID NO 345]
- binding: binds

Binder: TAFTSWEEYLDWVGSGQELPNHRRLS [SEQ ID NO 346]
- binding: binds

Binder: TAFTSWEEYLDWVGSGNMCYLRGKMDCNIV [SEQ ID NO 347]
- binding: binds

Binder: TAFTSWEEYLDWVGSGVCSDHYIGGKEVRC [SEQ ID NO 348]
- binding: binds

Binder: TAFTSWEEYLDWVGSGSETGLGTYYG [SEQ ID NO 350]
- binding: binds

Binder: TAFTSWEEYLDWVGSGSPCRVGYTPC [SEQ ID NO 351]
- binding: binds

Binder: TAFTSWEEYLDWVGSGNCARLYSHQRDYSQVC [SEQ ID NO 352]
- binding: binds

Binder: TAFTSWEEYLDWVGSGCLDRSGGCYTREGYLS [SEQ ID NO 353]
- binding: binds

Binder: TAFTSWEEYLDWVGSGSSTWHFVGGVRV [SEQ ID NO 354]
- binding: binds

Binder: TAFTSWEEYLDWVGSGTRYADRGVMVYSLS [SEQ ID NO 321]
- binding: binds

Binder: TAFTSWEEYLDWVGSGCYPLCRVG [SEQ ID NO 355]
- binding: binds

Binder: TAFTSWEEYLDWVGSGKCDSHYIRGVVACH [SEQ ID NO 356]
- binding: binds

Binder: TAFTSWEEYLDWVGSGGCGYRYMCDMINGL [SEQ ID NO 358]
- binding: binds

Binder: TAFTSWEEYLDWVGSGGDCYPHCRLV [SEQ ID NO 359]
- binding: binds

Binder: TAFTSWEEYLDWVGSGDCLRYRVGSSCS [SEQ ID NO 360]
- binding: binds

Binder: TAFTSWEEYLDWVGSGRCESKGWANTCVSE [SEQ ID NO 362]
- binding: binds

Binder: TAFTSWEEYLDWVGSGCYPLCRVL [SEQ ID NO 364]
- binding: binds

Binder: TAFTSWEEYLDWVGSGRCGLAWCVVLVDQ [SEQ ID NO 365]
- binding: binds

Binder: TAFTSWEEYLDWVGSGRGGYELNIPR [SEQ ID NO 326]
- binding: binds

Binder: SGPRTYLRGLVD [SEQ ID NO 366]
- binding: binds

Binder: SGNCWSSLRGICENLG [SEQ ID NO 367]
- binding: binds

Binder: SGMVYVDRGVRVFT [SEQ ID NO 368]
- binding: binds

Binder: SGGCVKYRGSVSCQESKT [SEQ ID NO 369]
- binding: binds

Binder: SGEHQFYSYRGVDVYR [SEQ ID NO 370]
- binding: binds

Binder: SGACLNHFVSGNMIRC [SEQ ID NO 371]
- binding: binds

Binder: SGSYRGAWSVFGGSTD [SEQ ID NO 372]
- binding: binds

Binder: SGCWTYLRGGCSVT [SEQ ID NO 373]
- binding: binds

Binder: SGTPEMPAML [SEQ ID NO 374]
- binding: binds

Binder: SGLAPTVSDS [SEQ ID NO 375]
- binding: binds

Binder: SGDTRSQLSH [SEQ ID NO 376]
- binding: binds

Binder: SGAGKLDLSG [SEQ ID NO 377]
- binding: binds

Binder: SGNALWNHDRLT [SEQ ID NO 379]
- binding: binds

Binder: SGRNGSGYINRGIEIW [SEQ ID NO 380]
- binding: binds

Binder: SGHASKGMVLSG [SEQ ID NO 381]
- binding: binds

Binder: SGGSIPWNLERITPPR [SEQ ID NO 382]
- binding: binds

Binder: TAFTSWEEYLDWVGSGKLWNLGRV [SEQ ID NO 306]
- binding: binds

Binder: TAFTSWEEYLDWVGSGNCWSSLRGICENLG [SEQ ID NO 307]
- binding: binds

Binder: TAFTSWEEYLDWVGSGVLWNHSRI [SEQ ID NO 308]
- binding: binds

Binder: TAFTSWEEYLDWVGSGGPWNLNRV [SEQ ID NO 309]
- binding: binds

Binder: TAFTSWEEYLDWVGSGPLLWNLQKVH [SEQ ID NO 310]
- binding: binds

Binder: TAFTSWEEYLDWVGSGSCSWNVERIRGCSV [SEQ ID NO 311]
- binding: binds

Binder: TAFTSWEEYLDWVGSGKLWNLTRISS [SEQ ID NO 312]
- binding: binds

Source: patent US20200283478A1
